The list shows a part of the results.

Protein sequences, listed by entry. Tags and fused reporters are not part of them.
UniProt Q0JBA9, entry or part of it: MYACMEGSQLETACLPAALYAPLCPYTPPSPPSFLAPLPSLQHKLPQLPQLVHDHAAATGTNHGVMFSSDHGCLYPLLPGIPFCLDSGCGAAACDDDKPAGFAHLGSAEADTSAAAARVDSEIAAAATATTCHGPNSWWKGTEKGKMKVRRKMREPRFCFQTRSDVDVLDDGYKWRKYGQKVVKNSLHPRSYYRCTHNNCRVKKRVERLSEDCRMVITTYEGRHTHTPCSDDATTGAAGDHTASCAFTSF

The assay addresses OsWRKY34 (Oryza sativa, UniProt Q0JBA9 1-250). In words: protein-binding microarray (RPBM); PBS, 2% BSA, 51.3 ng/ul salmon testes DNA, 50 uM zinc acetate, 200 nM TF, 25 C, 1 h; high values mean tight binding. The conditions noted are these: protein: recombinant; tags: N-terminal polyhistidine and DsRed monomer fusion (pET32a); label: CyDye5-dUTP incorporated in the synthesized complementary strand; 3' TTTTT single-stranded linker to array surface; dsDNA, one strand shown. The essentials: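 A custom Agilent array was converted to double-stranded form by primer extension with Cy5-dUTP and blocked with 2% BSA. Protein at 200 nM in PBS with 2% BSA, salmon testes DNA and 50 µM zinc acetate was applied for 1 h at 25 °C, followed by washing. The proteins were polyhistidine–DsRed N-terminal fusions of transcription factors, expressed in E. coli BL21-CodonPlus and Ni–NTA-purified. The binding signal is per-feature fluorescence intensity (arbitrary units) from an Axon 4000B scanner.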
“AATTTATATTGTTTTGTTATCTTACCCATTTTGTTTACTTCGGAGTCACCTAGTGCAG”: the binding signal is 9580 fluorescence intensity (a.u.).

With “CGGTTATCTCTACTCTACAATCTTGTTGTAATTTTTTTCTCGGAGTCACCTAGTGCAG”, the binding signal was 8070 fluorescence intensity (a.u.).

Turning to “TGCGTGGGCGTCACGTTCGTCGACTACTTGGGCGGGAGGGCGGAGTCACCTAGTGCAG”, the binding signal is 12900 fluorescence intensity (a.u.).

“TCCTCATTCCTTGTTTGGTTTCACGTCGAATTCCCTCCAACGGAGTCACCTAGTGCAG”: the binding signal was 8680 fluorescence intensity (a.u.).

As for “CTCAACACTTTTAGGCCTGCCTCTGCCTCTGCCTCTCTATCGGAGTCACCTAGTGCAG”, the binding signal is 8140 fluorescence intensity (a.u.).

On to “TTTAACTCTCGTTTTTGGTTCCCAAGGTGTGAAATTCTGTCGGAGTCACCTAGTGCAG”, for which the binding signal is 10400 fluorescence intensity (a.u.).

As for “TACGCTGTGATCCCCGTCTTCAATTTCTCGTTCGCTCTCACGGAGTCACCTAGTGCAG”, the binding signal was 12800 fluorescence intensity (a.u.).

With “ATTTTGGTTTCATTGGCTTTACTTCAAGACAATCAGCTTTCGGAGTCACCTAGTGCAG”, the binding signal was 8270 fluorescence intensity (a.u.).

For the sequence “TCCCCGTTGCTTTTGCTCTTCGTCAGATTAATCCTTTCCTCGGAGTCACCTAGTGCAG”, the binding signal is 13300 fluorescence intensity (a.u.).

Consider “TCTCTTAGCGCATTTTTTTTACTAGGACCTATTAACTTAACGGAGTCACCTAGTGCAG”, for which the binding signal is 9440 fluorescence intensity (a.u.).

On to “TTCTGGTTTTATGGTTAAGTTGAGGGATCTCCGGTGAACTCGGAGTCACCTAGTGCAG”, for which the binding signal is 9460 fluorescence intensity (a.u.).

Consider “GCGTCAGCAACCCAGCCCAAGCCTATCCTAGCGTCGTCATCGGAGTCACCTAGTGCAG”, for which the binding signal was 8120 fluorescence intensity (a.u.).

Take “GTTGTATATAGAATATATATTGATCTGTTACATGTAAATTCGGAGTCACCTAGTGCAG”: the binding signal is 8090 fluorescence intensity (a.u.).

For the sequence “CTCCGATTCTAGCCTACCTCGCTCGCTCGCTCGCTCGCTCCGGAGTCACCTAGTGCAG”, the binding signal is 9480 fluorescence intensity (a.u.).

Turning to “TTTAAATCTATTTTTTTTCTGGGGTTATATATTTTTTATACGGAGTCACCTAGTGCAG”, the binding signal was 9420 fluorescence intensity (a.u.).

On to “ATGATATGTTCCATACTAAATTTATTGTTTTTTTGATAGTCGGAGTCACCTAGTGCAG”, for which the binding signal was 9170 fluorescence intensity (a.u.).

On to “CTCTCCTCCTCCACCTCGCTGACGCTTTGTCCCTTTATTCCGGAGTCACCTAGTGCAG”, for which the binding signal is 9930 fluorescence intensity (a.u.).

On to “ACCTTGACCTTTACTGGCATTTTTCAGTCATCAACTACTACGGAGTCACCTAGTGCAG”, for which the binding signal is 9620 fluorescence intensity (a.u.).

Regarding “TTGCCTCTCGCTGCCTTGCCCCACAGCGACCGGTCTCGTACGGAGTCACCTAGTGCAG”, the binding signal was 8810 fluorescence intensity (a.u.).

For the sequence “CGTTGGGCCCCATGCTTCTCTAATCACTCGATCTCTCCCACGGAGTCACCTAGTGCAG”, the binding signal was 10600 fluorescence intensity (a.u.).

On to “CTAAGGCCTGTTGCCTGCTCTAGTCTGATTCAACTTTCAACGGAGTCACCTAGTGCAG”, for which the binding signal is 8830 fluorescence intensity (a.u.).

In the case of “CGTGGACGCCGCGCTTACCGTCACCTCCGCCGGGCCCACCCGGAGTCACCTAGTGCAG”, the binding signal was 8460 fluorescence intensity (a.u.).

For the sequence “TTAACGTACACCCACGCTTACCATCATCAAATCGAAATCGCGGAGTCACCTAGTGCAG”, the binding signal was 8350 fluorescence intensity (a.u.).

Turning to “GATAGCCCTACTTACCCGGCCCATAATCACGATGGGCCAGCGGAGTCACCTAGTGCAG”, the binding signal is 8040 fluorescence intensity (a.u.).

On to “GCTCTCTCGTCTCTTATCTTCTCTCGCGCGCACAGTGATGCGGAGTCACCTAGTGCAG”, for which the binding signal is 8910 fluorescence intensity (a.u.).

For the sequence “CCCGACCAAACACTACGAACTCTTCTACCTTCTTTGTTTCCGGAGTCACCTAGTGCAG”, the binding signal is 12600 fluorescence intensity (a.u.).

Take “AAGATTGTCCGAAGGCCCCTTGCTTGTGTTGCCAGATTTCCGGAGTCACCTAGTGCAG”: the binding signal is 9870 fluorescence intensity (a.u.).

On to “CGTCAATCCAGTGATCCGTCTCTTTCCTGCGTACTATATCCGGAGTCACCTAGTGCAG”, for which the binding signal is 10400 fluorescence intensity (a.u.).

Consider “AGTTTGCATATATATACGCTGTCTTTTTGCTGGACAACAACGGAGTCACCTAGTGCAG”, for which the binding signal is 8940 fluorescence intensity (a.u.).

Take “TCACGCATCGGCGCCGCCCTCCGGCCAGCAGCGACTCGCCCGGAGTCACCTAGTGCAG”: the binding signal was 44600 fluorescence intensity (a.u.).

As to “CCGATCCATTCCCAATCCCATCCCATCCCATCGATCGATCCGGAGTCACCTAGTGCAG”, the binding signal is 9460 fluorescence intensity (a.u.).

Regarding “CTTGCTAATATCCTCACTCATGATACACGTGTAGCCCCTACGGAGTCACCTAGTGCAG”, the binding signal was 9790 fluorescence intensity (a.u.).

For “ACGACGCATCACCCATCTCATTCTCATCATCGTCGCGTGACGGAGTCACCTAGTGCAG”, the binding signal is 10700 fluorescence intensity (a.u.).

With “GACGTTCATTTTTATTCAACGGTTGTTTTTAGATTTTTCACGGAGTCACCTAGTGCAG”, the binding signal was 13500 fluorescence intensity (a.u.).

On to “ACGGTTGGACTTTCTCGATTAATCGCGTATCTGTGCACGTCGGAGTCACCTAGTGCAG”, for which the binding signal is 9640 fluorescence intensity (a.u.).

Take “TTCTCTCGTCGTTGTTGTTGTCGTTGTTGTTGCACTCGCGCGGAGTCACCTAGTGCAG”: the binding signal is 11200 fluorescence intensity (a.u.).

For “CTGCTCCTCACGCCTGTACGTTCCGCTCCTTCACATCAGCCGGAGTCACCTAGTGCAG”, the binding signal was 12500 fluorescence intensity (a.u.).

For “ATGCGTTATGAATTCTGATTATCTTTTTCTCTTTTTTTTGCGGAGTCACCTAGTGCAG”, the binding signal is 11200 fluorescence intensity (a.u.).

“GCTGGATTTTTATGGGAGGGCACACAAGGATTCTCTCCCGCGGAGTCACCTAGTGCAG”: the binding signal is 11200 fluorescence intensity (a.u.).

“TCTTCCGCTCGATCCCCGTCGCGGCGCCGCCTCGTCTCGCCGGAGTCACCTAGTGCAG”: the binding signal was 8430 fluorescence intensity (a.u.).

As to “AAACAATACAATGCACCTGCCGTACTATAATTTTGTCATTCGGAGTCACCTAGTGCAG”, the binding signal is 9830 fluorescence intensity (a.u.).

Take “CCTCAATTTCCAGTGCCTGTAGTACTCTTCACTGTCTCCACGGAGTCACCTAGTGCAG”: the binding signal is 8800 fluorescence intensity (a.u.).

On to “CGCACTGCCACCTACCCATCCGTCGTCGACGCAGATGATCCGGAGTCACCTAGTGCAG”, for which the binding signal is 8750 fluorescence intensity (a.u.).

Turning to “TTTGTCAATTGATGTATACATATGTGCTTTGTGTTCCTACCGGAGTCACCTAGTGCAG”, the binding signal is 11100 fluorescence intensity (a.u.).

On to “TACTGCAACATTGCAACCTGTTCCATCTTTTGGTTTATTACGGAGTCACCTAGTGCAG”, for which the binding signal is 9150 fluorescence intensity (a.u.).

For the sequence “ACTTATTCCTTGCAACTTTGCAAGCCATTGGGTCGGGCCACGGAGTCACCTAGTGCAG”, the binding signal is 9780 fluorescence intensity (a.u.).

As to “TGGTGTTGTCGGTGTGTGGGTGGTGATATACTTTTTTTTTCGGAGTCACCTAGTGCAG”, the binding signal was 11600 fluorescence intensity (a.u.).

For “GAGAAAAGTATCCCTGTTTGGCAACCGTATCTTCCTCATTCGGAGTCACCTAGTGCAG”, the binding signal is 8460 fluorescence intensity (a.u.).

For the sequence “TCATCCTCGCCTGCAGCTTCACCACGCCGACGCCGTCGCTCGGAGTCACCTAGTGCAG”, the binding signal was 9850 fluorescence intensity (a.u.).

For “TACTCTTGTTGGTTTCTTCTCCAGTCCAAGTGTCCGCGCTCGGAGTCACCTAGTGCAG”, the binding signal was 10300 fluorescence intensity (a.u.).

For “GACTGAAGCTCGCAATACCATAAGTCGTTTTTGCTCACGACGGAGTCACCTAGTGCAG”, the binding signal was 8650 fluorescence intensity (a.u.).

For the sequence “TGGACTTTCTTATTATCCGTTTCCTAGTGCATCTATTAGTCGGAGTCACCTAGTGCAG”, the binding signal is 8120 fluorescence intensity (a.u.).

Turning to “CTAACCACCTCCAAGCTTCTCTCTCTCGCTCACAATCTCTCGGAGTCACCTAGTGCAG”, the binding signal was 9560 fluorescence intensity (a.u.).

In the case of “CAACCAGCTCATAGATATCTTGCACGTAATCTTCCTAATTCGGAGTCACCTAGTGCAG”, the binding signal is 8690 fluorescence intensity (a.u.).

Values taken from article PMC7819943, “Rice protein-binding microarrays: a tool to detect cis-acting elements near promoter regions in rice”.
